Data: the supplement of paper PMC3334620
The full ranking holds about 33,000 sequences; the median of “E-score (-0.5 to 0.5)” is about -0.0014, and the highest 2% start at about 0.25. The list shows a part of the results.

target: T1, Cad1 (UniProt P24813); test: PBM E-score (8-mer binding enrichment) (E-score (-0.5 to 0.5)); higher = stronger / more preferred TF binding; conditions: protein concentration: 100 nM; construct: GST-full length
T1 sequence: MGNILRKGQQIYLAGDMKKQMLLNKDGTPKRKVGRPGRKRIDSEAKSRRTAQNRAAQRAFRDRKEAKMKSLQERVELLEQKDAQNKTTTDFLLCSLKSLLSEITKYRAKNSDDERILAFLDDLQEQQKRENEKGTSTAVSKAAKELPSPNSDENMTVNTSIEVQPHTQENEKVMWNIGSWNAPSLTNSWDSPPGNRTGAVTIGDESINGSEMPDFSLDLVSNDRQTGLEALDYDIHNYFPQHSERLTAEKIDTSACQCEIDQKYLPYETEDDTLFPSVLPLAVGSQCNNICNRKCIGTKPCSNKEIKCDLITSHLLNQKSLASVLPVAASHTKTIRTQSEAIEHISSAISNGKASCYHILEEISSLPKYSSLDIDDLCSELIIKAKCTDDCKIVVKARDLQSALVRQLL
Method: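 Universal 'all 10-mer' protein binding microarrays (Agilent AMADID 015681) probed with GST-tagged S. cerevisiae TFs (full-length or DBD) made by in vitro transcription/translation (PURExpress), about 100-200 nM. Bound TF was detected with fluorescent anti-GST. Each ungapped 8-mer (which stands for itself and its reverse complement) is scored by the PBM enrichment score (E-score), a modified Wilcoxon-Mann-Whitney statistic from -0.5 to +0.5, computed with the Universal PBM Analysis Suite. Scale: above 0.35 generally sequence-specific binding.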

| Sequence | PBM E-score |
| --- | --- |
| CCCACAGC | -0.0882 |
| AGCCCGGC | -0.0159 |
| AGGAGAGA | -0.211 |
| CGCTGTCC | 0.137 |
| CAAAAGTG | -0.0478 |
| GAGACTCC | -0.0922 |
| AAAGAGTG | -0.142 |
| CACTGCGC | -0.0286 |
| AGTAAAAG | 0.0683 |
| GTCCACTA | 0.00702 |
| CGAAAGTC | -0.0323 |
| GTCAAGTA | -0.27 |
| AGTCGGTA | -0.161 |
| ATTGCGAA | -0.0152 |
| AACCCAGG | -0.0872 |
| GGTGGTAA | 0.14 |
| TGGAAGAA | 0.0443 |
| ATCATGCC | 0.0697 |
| ACTCTACC | 0.0861 |
| AGTGCTGC | -0.0906 |
| CAGTTATC | -0.0844 |
| AAAATCTA | 0.0352 |
| AAACTCTA | -0.145 |
| CAGGTTAA | -0.0833 |
| CTATGAGA | -0.12 |

| Sequence | PBM E-score |
| --- | --- |
| ACGAGAGA | -0.16 |
| ATGATGGC | -0.188 |
| AGCTACAA | 0.139 |
| GATGCTAC | -0.02 |
| CCCGTGCC | -0.241 |
| AGCGGCCA | -0.131 |
| CGATCCCC | -0.139 |
| AAAATAGA | 0.0904 |
| ATTCAGTC | -0.0545 |
| AAATCACA | 0.05 |
| TCTCTGAA | -0.0432 |
| GCTCTACC | -0.247 |
| AAAAAGAA | 0.16 |
| AGTATCCC | -0.0378 |
| AACATTGT | 0.176 |
| AATGAAAT | 0.219 |
| AACTCGGT | 0.0455 |
| ACATGATG | -0.024 |
| AATTACGG | 0.0709 |
| ATAGAATC | -0.129 |
| GTTTTTAA | 0.141 |
| GCTCCACC | -0.138 |
| ACCCCTCG | -0.212 |
| AGCTCAAC | 0.0114 |
| AGTGACTG | -0.0238 |

As a working copy, part of the list above:

| Sequence | PBM E-score |
| --- | --- |
| AGCCCGGC | -0.0159 |
| AGGAGAGA | -0.211 |
| CGCTGTCC | 0.137 |

Next entries follow.

| Sequence | PBM E-score |
| --- | --- |
| ACCGTCGG | -0.1 |
| ATCGCCGG | 0.0365 |
| AACCCATA | 0.162 |
| CAGTACCC | -0.15 |
| ACCCACTG | -0.0557 |
| GGCGTTCA | -0.0646 |
| ACCTAAAA | 0.0181 |
| ACTCTTAT | 0.228 |
| GCGGTAGA | -0.0737 |
| TATACAGA | 0.125 |
| CGCATACA | 0.0764 |
| GACCGTTA | 0.0216 |
| TCAGGACA | 0.201 |
| CGCGTCTC | 0.133 |
| CATCGCAC | -0.136 |
| TAGTACGA | 0.0258 |
| TATAGTAA | 0.294 |
| CCCCCCTC | -0.389 |
| ACCAATTA | 0.154 |
| GACAACAC | 0.139 |
| CGAGTCGC | -0.187 |
| AAGCGCAT | 0.0449 |
| ACGGAGGC | -0.217 |
| GGAGTTGA | -0.0602 |
| GATCACGC | 0.226 |

| Sequence | PBM E-score |
| --- | --- |
| TCCCGCAA | -0.00465 |
| CGTGACGA | 0.156 |
| ACACTACA | 0.128 |
| ACTCTCCG | -0.0325 |
| TATTACCA | 0.222 |
| CTCCTAGC | -0.119 |
| ACGAATAG | 0.0566 |
| CCAGTAGG | -0.167 |
| AACGGGAG | 0.0563 |
| TCACGCGA | 0.179 |
| GCACGCAC | -0.0597 |
| ACACATAA | 0.187 |
| CCCCTTAA | -0.305 |
| TCTCGGCA | -0.0842 |
| ACACGTAG | -0.189 |
| CCTCGAGA | 0.0762 |
| ACCTCACT | -0.126 |
| GAGCTTTA | -0.0713 |
| GCGGGACC | -0.0389 |
| TAGACGGA | 0.0492 |
| AAGCTGCT | 0.181 |
| CGTAGCAA | 0.0723 |
| CGCAGTCC | -0.0225 |
| GAGGCTTA | -0.0175 |
| CTTCCAAC | 0.0787 |

| Sequence | PBM E-score |
| --- | --- |
| CGGTAGGC | -0.154 |
| GTGGCTTA | 0.00103 |
| TTTTAAAA | 0.128 |
| AGGGGAGA | -0.347 |
| AGTGTACA | 0.213 |
| GCATGAAC | 0.105 |
| GCGGAATA | 0.0367 |
| CGGCGTTC | -0.0872 |
| CCTGGTAA | 0.0575 |
| ATTGATAA | 0.2 |
| CCTAGTAG | -0.255 |
| CCCGACGA | -0.0019 |
| CACCATGC | -0.0454 |
| GAGTTTTA | 0.0417 |
| AGCACAAA | 0.181 |
| CAAGACGG | 0.0372 |
| ACCGAATA | 0.0629 |
| GTCCCGGA | 0.0645 |
| ACCATCGT | -0.074 |
| CAGATGGG | -0.197 |
| AACCAGCC | 0.0317 |
| AGATTCAC | -0.129 |
| ATCCAAAC | 0.0554 |
| CGGCGCGC | 0.258 |
| AGTTCCAC | 0.0445 |

Exported tab-delimited: entries from further up.
Sequence	PBM E-score
GCATGAAC	0.105
GCGGAATA	0.0367

Shown in CSV form: part of the list above.
Sequence,PBM E-score
CCCACAGC,-0.0882
AAACTCTA,-0.145
GACAACAC,0.139
CTCCTAGC,-0.119
CGGCGTTC,-0.0872
AGCACAAA,0.181
ATCCAAAC,0.0554

Carrying on.

| Sequence | PBM E-score |
| --- | --- |
| CATCAGCG | -0.0225 |
| CAAAAAAA | 0.147 |
| TATATGGA | -0.0332 |
| TACGCTAA | 0.176 |
| ACGTGTTC | -0.058 |
| CAATAACG | 0.204 |
| AACCCCTC | -0.319 |
| CCGTAGAC | -0.0558 |
| ACCTTCCT | -0.271 |
| CAGTTATA | -0.0494 |
| TAGTACCA | -0.0738 |
| CGCTCGGA | 0.248 |
| CCAAGTGG | -0.004 |
| GTATTGCA | -0.0639 |
| TATATTCA | 0.0925 |
| TCTGTGAA | 0.148 |
| CCCGATAA | -0.00516 |
| TGAGAGAA | 0.0668 |
| AGACGGTC | -0.199 |
| CACGTACG | -0.161 |
| CCCTCTAA | -0.132 |
| CAACTCGC | 0.133 |
| GTCACAGA | 0.111 |
| ATAGCGAA | 0.189 |
| CTTGTCCA | -0.0101 |

| Sequence | PBM E-score |
| --- | --- |
| CAACAATC | 0.164 |
| CGTCCGTA | -0.0771 |
| ACCTAGAT | -0.138 |
| CGAGTGGA | -0.0976 |
| CTGTTTTA | 0.0976 |
| CAACATGC | 0.0928 |
| AAAAGGTC | -0.0803 |
| CCAATACC | -0.107 |
| GCACCGGA | 0.044 |
| TAGGCCGA | -0.0728 |
| CTTATTTA | -0.00667 |
| AGACTAGA | -0.275 |
| TGTTGTAA | 0.134 |
| TCACAGGA | -0.0436 |
| CCATCTTC | 0.0894 |
| TACATATA | 0.252 |
| GCGGAACC | 0.17 |
| ACGCTACA | 0.0164 |
| GGTCCGAA | 0.143 |
| ACACCAAC | -0.0461 |
| AATCCTTC | -0.16 |
| CACACCAC | 0.191 |
